Literature values in US10912471B2, “System and method for automatic perfusion measurement” (priority 2018, dated 2021).

Conditions: administered intravenously; depending on liver performance; eliminated by the liver to bile juice

- half life of elimination from the body: 3 to 4 min
Compound: CC1(C)C(/C=C/C=C/C=C/C=C2\N(CCCCS(=O)(=O)O)c3ccc4ccccc4c3C2(C)C)=[N+](CCCCS(=O)(=O)[O-])c2ccc3ccccc3c21 [ICG, Indocyanine green]
